“Also recorded” adds a separate entry of the source. At least one peptide structure holds a part that was inferred or is arguable (an end, a ring closure or a residue). Residues, ends and D or L forms follow the SMILES beside them.
How the values were obtained:
[1] = system: cartilage, skin, hair, subcutaneous fat and eye ball; assay: Adhesiveness in in-vivo environment: peptide injected or applied to mouse tissues; details: mice
[2] = system: GAG (heparin, heparan sulfate, chondroitin sulfate); assay: Competitive binding with purified GAG on cell adhesiveness; format: cell-based; details: chondroitin sulfate (CS), DNA quantification by picogreen
cells = assay: Mechanism: effect of EDTA, cycloheximide (CHX) or serum on peptide-mediated cell adhesiveness; format: cell-based
[3] = system: anchorage dependent cells MC3T3-E1; assay: Comparative experiment with soluble RGDS, CCK-8; format: cell-based, Mouse; details: A7-1 10 μM, RGDS 0, 10, 100 and 1000 μM
Method: The present peptide A7-1(10 μM) or A7-1 together with soluble RGDS peptide (0, 10, 100 and 1000 μM) for competition assay were added to anchorage dependent cells MC3T3-E1 in a test tube and incubated for 10 min. Then the cells were transferred to a culture plate and incubated for 10 min in a thermostatic incubator to allow the cells to attach. After 10 min, the medium was removed and the cells were washed 2 times with PBS to remove any unattached cells and a fresh medium without the peptide and CCK-8 (Dojindo) were added to the cells and incubated for 1 hr in a thermostatic incubator. Then the absorbance was measured at 450 nm. The medium mixed with CCK-8 only was used as a blank.

[4] = system: MSCs (Mesenchymal Stem cell); assay: Adhesion progression of human MSC on coated coverslip; format: cell-based; details: 100 μM coated coverslip, 6 hrs
primary nerve cell = assay: Attachment and culture of primary nerve cells; format: cell-based, mouse

CC(C)C[C@H](NC(=O)[C@H](CCC(N)=O)NC(=O)[C@@H](N)CCCNC(=N)N)C(=O)N[C@H](C(=O)N[C@H](C(=O)N[C@@H](CCCCN)C(=O)N[C@@H](Cc1ccccc1)C(=O)N[C@@H](CCCNC(=N)N)C(=O)N[C@@H](C)C(=O)N[C@@H](CC(C)C)C(=O)N1CCC[C@H]1C(=O)N[C@@H](CS)C(=O)O)C(C)C)C(C)C [A7-1, RQLVVKFRALPC] (H-RQLVVKFRALPC-OH)
adhesiveness to bone ([1]; Cy-conjugated peptide, confocal): excellent adhesiveness
adhesiveness to cartilaginous tissue ([1]; injected FITC- or Cy-conjugated peptide, 10 μM): excellent adhesiveness
peptide-increased cell adhesiveness on addition of purified GAG [2]: significantly decreased in a concentration dependent manner
effect of CHX treatment (new protein synthesis) on peptide-increased cell adhesiveness (cells; CHX 10 μM, 37° C. for 1 hr): does not affect; also recorded: do not require
effect of EDTA treatment (electrolytes) on peptide-increased cell adhesiveness (cells; EDTA): does not affect; also recorded: does not require
effect of serum on peptide-increased cell adhesiveness (cells; serum): inhibits the adhesiveness of the cells at early stage; also recorded: inhibited at an early stage
cell adhesiveness with soluble RGDS competitor in the presence of A7-1 [3]: not affected at all
adhesion progression (actin-ring versus stress fiber formation) [4]: stress fiber formation stage past the actin-ring stage; also recorded: numerous stress fiber formations
adhesiveness by cell aspect ratio ([4]; compared to controls): excellent adhesiveness
cell attachment by CCK-8 at hours indicated (primary nerve cell; 100 μM coating, versus laminin and poly-L-ornithin): significantly different from other groups
adhesiveness compared with currently used adhesive peptides (primary nerve cell; versus Laminin and poly-L-ornithin): superior

From patent publication US10857258B2, “Adhesive peptide and use therefor” (SEWON BIOTECHNOLOGY INC., priority 2015, dated 2020)
